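A panel of P. falciparum strains inside erythrocytes is exposed to compounds for three days, then a DNA-binding dye reports the amount of parasite DNA. Each compound was titrated across a series from about 0.000037 to 29 µM. The number is the fitted AC50, the concentration giving a half-maximal change in signal; a lower value means higher potency, whether the curve shows a decrease or an increase. Calls follow the curve class and fit quality: every row here is inconclusive, covering signal-raising curves and weak, poorly fitted, partial or highest-dose-only inhibition curves.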

Values are in nM. Every entry below has the call inconclusive. Only part of the assay is shown, chiefly results filed as inconclusive. A potency from a partial, single-point or poor curve is only a rough figure.

structure,setting,Potency (nM),curve as filed
CCOc1cc(-c2nccc3cc(OC)c(OC)cc23)cc(OCC)c1OCC,CP260,11220,"inhibitor, single point"
CCOc1cc(-c2nccc3cc(OC)c(OC)cc23)cc(OCC)c1OCC,AS120,17782,"inhibitor, single point"
CCOc1cc(-c2nccc3cc(OC)c(OC)cc23)cc(OCC)c1OCC,ATS95,15848,"inhibitor, single point"
CCOc1cc(-c2nccc3cc(OC)c(OC)cc23)cc(OCC)c1OCC,DFO2036,12589,"inhibitor, single point"
CCOc1cc(-c2nccc3cc(OC)c(OC)cc23)cc(OCC)c1OCC,P93_24,10000,"inhibitor, single point"
CCOc1cc(-c2nccc3cc(OC)c(OC)cc23)cc(OCC)c1OCC,CP203,9528,"inhibitor, single point"
CC(C)Cn1cnc2c(N)nc3ccccc3c21,7G8,8912,"inhibitor, single point"
CC(C)Cn1cnc2c(N)nc3ccccc3c21,CP260,10000,"inhibitor, single point"
CC(C)Cn1cnc2c(N)nc3ccccc3c21,TAB113,3981,"inhibitor, single point"
CC(C)Cn1cnc2c(N)nc3ccccc3c21,HB3,11220,"inhibitor, single point"
C[C@H](CN1c2ccccc2Sc2cccnc21)N(C)C,PC15,1412,"inhibitor, partial curve"
C[C@H](CN1c2ccccc2Sc2cccnc21)N(C)C,CP315,10690,"inhibitor, single point"
C[C@H](CN1c2ccccc2Sc2cccnc21)N(C)C,ICS,2512,"inhibitor, partial curve"
C[C@H](CN1c2ccccc2Sc2cccnc21)N(C)C,CP217,11220,"inhibitor, partial curve"
C[C@H](CN1c2ccccc2Sc2cccnc21)N(C)C,CP256,11220,"inhibitor, partial curve"
C[C@H](CN1c2ccccc2Sc2cccnc21)N(C)C,CP305,7569,"inhibitor, partial curve"
C[C@H](CN1c2ccccc2Sc2cccnc21)N(C)C,7G8,5012,"inhibitor, partial curve"
C[C@H](CN1c2ccccc2Sc2cccnc21)N(C)C,CP269,19011,"inhibitor, single point"
C[C@H](CN1c2ccccc2Sc2cccnc21)N(C)C,3D7,5012,"inhibitor, partial curve"
C[C@H](CN1c2ccccc2Sc2cccnc21)N(C)C,CP192,8492,"inhibitor, partial curve"
C[C@H](CN1c2ccccc2Sc2cccnc21)N(C)C,DIV30,11995,"inhibitor, partial curve"
C[C@H](CN1c2ccccc2Sc2cccnc21)N(C)C,CP201,11995,"inhibitor, partial curve"
C[C@H](CN1c2ccccc2Sc2cccnc21)N(C)C,CP329,16944,"inhibitor, single point"
C[C@H](CN1c2ccccc2Sc2cccnc21)N(C)C,CP268,9528,"inhibitor, partial curve"
C[C@H](CN1c2ccccc2Sc2cccnc21)N(C)C,CP191,5012,"inhibitor, partial curve"
C[C@H](CN1c2ccccc2Sc2cccnc21)N(C)C,CP211,19011,"inhibitor, single point"
C[C@H](CN1c2ccccc2Sc2cccnc21)N(C)C,CP325,11995,"inhibitor, single point"
C[C@H](CN1c2ccccc2Sc2cccnc21)N(C)C,JCK,12589,"inhibitor, single point"
N[C@@H]1C(O)OC(CO)C(O)C1O (some centres undefined),CP262,21331,"inhibitor, partial curve, poor fit"
N[C@@H]1C(O)OC(CO)C(O)C1O (some centres undefined),CP203,10690,"inhibitor, partial curve, poor fit"
N[C@@H]1C(O)OC(CO)C(O)C1O (some centres undefined),CP269,9528,"inhibitor, partial curve, poor fit"
N[C@@H]1C(O)OC(CO)C(O)C1O (some centres undefined),DIV14,1.9,"inhibitor, full curve, poor fit"
N[C@@H]1C(O)OC(CO)C(O)C1O (some centres undefined),parasite line B,17782,"inhibitor, single point"
N[C@@H]1C(O)OC(CO)C(O)C1O (some centres undefined),CP192,11995,"inhibitor, partial curve, poor fit"
N[C@@H]1C(O)OC(CO)C(O)C1O (some centres undefined),GB4,19011,"inhibitor, single point"
N[C@@H]1C(O)OC(CO)C(O)C1O (some centres undefined),CP215,21331,"inhibitor, single point"
N[C@@H]1C(O)OC(CO)C(O)C1O (some centres undefined),P94_40,12589,"inhibitor, partial curve"
COc1c(C)c2c(c(O)c1CC=C(C)CCC(=O)OCCN1CCOCC1)C(=O)OC2,CP256,10000,"inhibitor, single point"
COc1c(C)c2c(c(O)c1CC=C(C)CCC(=O)OCCN1CCOCC1)C(=O)OC2,HB3,11220,"inhibitor, single point"
COc1c(C)c2c(c(O)c1CC=C(C)CCC(=O)OCCN1CCOCC1)C(=O)OC2,PC26,15101,"inhibitor, partial curve"
COc1c(C)c2c(c(O)c1CC=C(C)CCC(=O)OCCN1CCOCC1)C(=O)OC2,CP247,15848,"inhibitor, single point"
COc1c(C)c2c(c(O)c1CC=C(C)CCC(=O)OCCN1CCOCC1)C(=O)OC2,JCK,11220,"inhibitor, single point"
COc1c(C)c2c(c(O)c1CC=C(C)CCC(=O)OCCN1CCOCC1)C(=O)OC2,CP191,10000,"inhibitor, single point"
COc1c(C)c2c(c(O)c1CC=C(C)CCC(=O)OCCN1CCOCC1)C(=O)OC2,CP185,10000,"inhibitor, single point"
COc1c(C)c2c(c(O)c1CC=C(C)CCC(=O)OCCN1CCOCC1)C(=O)OC2,CP262,10690,"inhibitor, single point"
CCCCCCCCCCCCOCCOCCOCCOCCOCCOCCOCCOCCOCCO,C2A,11220,"inhibitor, single point"
CCCCCCCCCCCCOCCOCCOCCOCCOCCOCCOCCOCCOCCO,ATS95,10000,"inhibitor, single point"
CCCCCCCCCCCCOCCOCCOCCOCCOCCOCCOCCOCCOCCO,AS120,17782,"inhibitor, single point"
CCCCCCCCCCCCOCCOCCOCCOCCOCCOCCOCCOCCOCCO,HB3,11220,"inhibitor, single point"
CCCCCCCCCCCCOCCOCCOCCOCCOCCOCCOCCOCCOCCO,CP335,19011,"inhibitor, single point"
CCCCCCCCCCCCOCCOCCOCCOCCOCCOCCOCCOCCOCCO,parasite line A,11220,"inhibitor, single point"
CCCCCCCCCCCCOCCOCCOCCOCCOCCOCCOCCOCCOCCO,CP250,17782,"inhibitor, single point"
CCCCCCCCCCCCOCCOCCOCCOCCOCCOCCOCCOCCOCCO,CP256,10000,"inhibitor, single point"
CCCCCCCCCCCCOCCOCCOCCOCCOCCOCCOCCOCCOCCO,TAB109,17782,"inhibitor, single point"
CCCCCCCCCCCCOCCOCCOCCOCCOCCOCCOCCOCCOCCO,ICS,17782,"inhibitor, single point"

Source: PubChem BioAssay AID504749 (NCATS, 2011).